Measurements as given in the supplement of paper PMC10849652.
This is one part of the list.

The chains behind the UniProt entries cited, without tags or fusion partners. Where a name states a change or a piece, a line headed by the entry shows the natural chain unless it says otherwise.
UniProt Q8NFY9: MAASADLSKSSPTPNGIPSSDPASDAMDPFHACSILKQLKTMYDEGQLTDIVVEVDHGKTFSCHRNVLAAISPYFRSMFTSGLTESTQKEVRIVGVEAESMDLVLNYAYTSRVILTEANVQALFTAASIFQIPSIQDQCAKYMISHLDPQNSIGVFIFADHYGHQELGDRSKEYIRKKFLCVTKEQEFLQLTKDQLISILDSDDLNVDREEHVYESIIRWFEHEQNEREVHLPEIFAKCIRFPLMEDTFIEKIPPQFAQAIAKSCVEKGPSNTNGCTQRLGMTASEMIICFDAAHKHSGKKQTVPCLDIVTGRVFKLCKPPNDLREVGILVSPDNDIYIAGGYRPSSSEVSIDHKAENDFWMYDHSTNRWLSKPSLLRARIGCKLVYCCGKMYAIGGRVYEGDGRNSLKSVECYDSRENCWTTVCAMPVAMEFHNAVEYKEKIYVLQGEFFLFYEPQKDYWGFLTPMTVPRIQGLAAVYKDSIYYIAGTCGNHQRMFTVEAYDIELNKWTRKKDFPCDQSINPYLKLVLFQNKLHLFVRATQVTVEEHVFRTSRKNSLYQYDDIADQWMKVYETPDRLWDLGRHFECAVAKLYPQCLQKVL
UniProt Q96AT1: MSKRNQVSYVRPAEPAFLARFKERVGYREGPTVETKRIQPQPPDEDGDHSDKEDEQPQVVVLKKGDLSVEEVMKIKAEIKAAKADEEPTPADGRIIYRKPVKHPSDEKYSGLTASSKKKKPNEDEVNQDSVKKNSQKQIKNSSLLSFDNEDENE
UniProt Q8IXQ5, whole entry, looked up: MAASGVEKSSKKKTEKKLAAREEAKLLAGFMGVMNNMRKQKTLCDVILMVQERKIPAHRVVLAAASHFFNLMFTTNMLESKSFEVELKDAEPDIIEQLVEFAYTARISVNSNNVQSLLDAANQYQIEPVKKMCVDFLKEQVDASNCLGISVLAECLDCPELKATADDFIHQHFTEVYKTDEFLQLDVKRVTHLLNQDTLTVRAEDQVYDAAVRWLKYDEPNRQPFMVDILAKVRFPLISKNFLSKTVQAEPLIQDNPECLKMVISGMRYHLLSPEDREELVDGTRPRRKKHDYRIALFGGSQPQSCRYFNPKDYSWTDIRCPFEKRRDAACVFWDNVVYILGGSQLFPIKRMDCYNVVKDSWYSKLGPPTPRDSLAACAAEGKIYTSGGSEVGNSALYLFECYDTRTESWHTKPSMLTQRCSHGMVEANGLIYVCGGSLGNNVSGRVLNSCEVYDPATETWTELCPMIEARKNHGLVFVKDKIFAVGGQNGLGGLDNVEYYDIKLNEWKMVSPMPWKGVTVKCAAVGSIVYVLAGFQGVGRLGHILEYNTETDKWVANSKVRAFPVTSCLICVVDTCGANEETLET
UniProt Q99661: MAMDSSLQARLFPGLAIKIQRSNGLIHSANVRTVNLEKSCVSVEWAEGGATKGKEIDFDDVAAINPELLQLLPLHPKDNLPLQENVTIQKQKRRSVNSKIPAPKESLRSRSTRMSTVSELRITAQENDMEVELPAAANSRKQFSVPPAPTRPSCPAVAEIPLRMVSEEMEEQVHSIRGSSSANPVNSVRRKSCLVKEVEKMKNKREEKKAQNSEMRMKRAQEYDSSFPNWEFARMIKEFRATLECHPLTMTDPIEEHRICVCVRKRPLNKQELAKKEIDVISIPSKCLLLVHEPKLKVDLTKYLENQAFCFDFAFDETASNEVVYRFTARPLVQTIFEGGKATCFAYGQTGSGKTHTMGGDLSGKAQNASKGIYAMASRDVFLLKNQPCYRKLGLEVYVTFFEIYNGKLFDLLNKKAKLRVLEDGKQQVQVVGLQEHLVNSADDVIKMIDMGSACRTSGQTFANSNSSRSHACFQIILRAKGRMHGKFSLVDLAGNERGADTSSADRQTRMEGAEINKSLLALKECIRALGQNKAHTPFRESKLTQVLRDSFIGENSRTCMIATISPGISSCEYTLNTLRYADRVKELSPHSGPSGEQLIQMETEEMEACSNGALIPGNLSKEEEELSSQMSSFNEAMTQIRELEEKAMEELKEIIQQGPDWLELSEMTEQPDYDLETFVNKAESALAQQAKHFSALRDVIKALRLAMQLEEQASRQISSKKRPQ
UniProt Q03164, whole entry, looked up: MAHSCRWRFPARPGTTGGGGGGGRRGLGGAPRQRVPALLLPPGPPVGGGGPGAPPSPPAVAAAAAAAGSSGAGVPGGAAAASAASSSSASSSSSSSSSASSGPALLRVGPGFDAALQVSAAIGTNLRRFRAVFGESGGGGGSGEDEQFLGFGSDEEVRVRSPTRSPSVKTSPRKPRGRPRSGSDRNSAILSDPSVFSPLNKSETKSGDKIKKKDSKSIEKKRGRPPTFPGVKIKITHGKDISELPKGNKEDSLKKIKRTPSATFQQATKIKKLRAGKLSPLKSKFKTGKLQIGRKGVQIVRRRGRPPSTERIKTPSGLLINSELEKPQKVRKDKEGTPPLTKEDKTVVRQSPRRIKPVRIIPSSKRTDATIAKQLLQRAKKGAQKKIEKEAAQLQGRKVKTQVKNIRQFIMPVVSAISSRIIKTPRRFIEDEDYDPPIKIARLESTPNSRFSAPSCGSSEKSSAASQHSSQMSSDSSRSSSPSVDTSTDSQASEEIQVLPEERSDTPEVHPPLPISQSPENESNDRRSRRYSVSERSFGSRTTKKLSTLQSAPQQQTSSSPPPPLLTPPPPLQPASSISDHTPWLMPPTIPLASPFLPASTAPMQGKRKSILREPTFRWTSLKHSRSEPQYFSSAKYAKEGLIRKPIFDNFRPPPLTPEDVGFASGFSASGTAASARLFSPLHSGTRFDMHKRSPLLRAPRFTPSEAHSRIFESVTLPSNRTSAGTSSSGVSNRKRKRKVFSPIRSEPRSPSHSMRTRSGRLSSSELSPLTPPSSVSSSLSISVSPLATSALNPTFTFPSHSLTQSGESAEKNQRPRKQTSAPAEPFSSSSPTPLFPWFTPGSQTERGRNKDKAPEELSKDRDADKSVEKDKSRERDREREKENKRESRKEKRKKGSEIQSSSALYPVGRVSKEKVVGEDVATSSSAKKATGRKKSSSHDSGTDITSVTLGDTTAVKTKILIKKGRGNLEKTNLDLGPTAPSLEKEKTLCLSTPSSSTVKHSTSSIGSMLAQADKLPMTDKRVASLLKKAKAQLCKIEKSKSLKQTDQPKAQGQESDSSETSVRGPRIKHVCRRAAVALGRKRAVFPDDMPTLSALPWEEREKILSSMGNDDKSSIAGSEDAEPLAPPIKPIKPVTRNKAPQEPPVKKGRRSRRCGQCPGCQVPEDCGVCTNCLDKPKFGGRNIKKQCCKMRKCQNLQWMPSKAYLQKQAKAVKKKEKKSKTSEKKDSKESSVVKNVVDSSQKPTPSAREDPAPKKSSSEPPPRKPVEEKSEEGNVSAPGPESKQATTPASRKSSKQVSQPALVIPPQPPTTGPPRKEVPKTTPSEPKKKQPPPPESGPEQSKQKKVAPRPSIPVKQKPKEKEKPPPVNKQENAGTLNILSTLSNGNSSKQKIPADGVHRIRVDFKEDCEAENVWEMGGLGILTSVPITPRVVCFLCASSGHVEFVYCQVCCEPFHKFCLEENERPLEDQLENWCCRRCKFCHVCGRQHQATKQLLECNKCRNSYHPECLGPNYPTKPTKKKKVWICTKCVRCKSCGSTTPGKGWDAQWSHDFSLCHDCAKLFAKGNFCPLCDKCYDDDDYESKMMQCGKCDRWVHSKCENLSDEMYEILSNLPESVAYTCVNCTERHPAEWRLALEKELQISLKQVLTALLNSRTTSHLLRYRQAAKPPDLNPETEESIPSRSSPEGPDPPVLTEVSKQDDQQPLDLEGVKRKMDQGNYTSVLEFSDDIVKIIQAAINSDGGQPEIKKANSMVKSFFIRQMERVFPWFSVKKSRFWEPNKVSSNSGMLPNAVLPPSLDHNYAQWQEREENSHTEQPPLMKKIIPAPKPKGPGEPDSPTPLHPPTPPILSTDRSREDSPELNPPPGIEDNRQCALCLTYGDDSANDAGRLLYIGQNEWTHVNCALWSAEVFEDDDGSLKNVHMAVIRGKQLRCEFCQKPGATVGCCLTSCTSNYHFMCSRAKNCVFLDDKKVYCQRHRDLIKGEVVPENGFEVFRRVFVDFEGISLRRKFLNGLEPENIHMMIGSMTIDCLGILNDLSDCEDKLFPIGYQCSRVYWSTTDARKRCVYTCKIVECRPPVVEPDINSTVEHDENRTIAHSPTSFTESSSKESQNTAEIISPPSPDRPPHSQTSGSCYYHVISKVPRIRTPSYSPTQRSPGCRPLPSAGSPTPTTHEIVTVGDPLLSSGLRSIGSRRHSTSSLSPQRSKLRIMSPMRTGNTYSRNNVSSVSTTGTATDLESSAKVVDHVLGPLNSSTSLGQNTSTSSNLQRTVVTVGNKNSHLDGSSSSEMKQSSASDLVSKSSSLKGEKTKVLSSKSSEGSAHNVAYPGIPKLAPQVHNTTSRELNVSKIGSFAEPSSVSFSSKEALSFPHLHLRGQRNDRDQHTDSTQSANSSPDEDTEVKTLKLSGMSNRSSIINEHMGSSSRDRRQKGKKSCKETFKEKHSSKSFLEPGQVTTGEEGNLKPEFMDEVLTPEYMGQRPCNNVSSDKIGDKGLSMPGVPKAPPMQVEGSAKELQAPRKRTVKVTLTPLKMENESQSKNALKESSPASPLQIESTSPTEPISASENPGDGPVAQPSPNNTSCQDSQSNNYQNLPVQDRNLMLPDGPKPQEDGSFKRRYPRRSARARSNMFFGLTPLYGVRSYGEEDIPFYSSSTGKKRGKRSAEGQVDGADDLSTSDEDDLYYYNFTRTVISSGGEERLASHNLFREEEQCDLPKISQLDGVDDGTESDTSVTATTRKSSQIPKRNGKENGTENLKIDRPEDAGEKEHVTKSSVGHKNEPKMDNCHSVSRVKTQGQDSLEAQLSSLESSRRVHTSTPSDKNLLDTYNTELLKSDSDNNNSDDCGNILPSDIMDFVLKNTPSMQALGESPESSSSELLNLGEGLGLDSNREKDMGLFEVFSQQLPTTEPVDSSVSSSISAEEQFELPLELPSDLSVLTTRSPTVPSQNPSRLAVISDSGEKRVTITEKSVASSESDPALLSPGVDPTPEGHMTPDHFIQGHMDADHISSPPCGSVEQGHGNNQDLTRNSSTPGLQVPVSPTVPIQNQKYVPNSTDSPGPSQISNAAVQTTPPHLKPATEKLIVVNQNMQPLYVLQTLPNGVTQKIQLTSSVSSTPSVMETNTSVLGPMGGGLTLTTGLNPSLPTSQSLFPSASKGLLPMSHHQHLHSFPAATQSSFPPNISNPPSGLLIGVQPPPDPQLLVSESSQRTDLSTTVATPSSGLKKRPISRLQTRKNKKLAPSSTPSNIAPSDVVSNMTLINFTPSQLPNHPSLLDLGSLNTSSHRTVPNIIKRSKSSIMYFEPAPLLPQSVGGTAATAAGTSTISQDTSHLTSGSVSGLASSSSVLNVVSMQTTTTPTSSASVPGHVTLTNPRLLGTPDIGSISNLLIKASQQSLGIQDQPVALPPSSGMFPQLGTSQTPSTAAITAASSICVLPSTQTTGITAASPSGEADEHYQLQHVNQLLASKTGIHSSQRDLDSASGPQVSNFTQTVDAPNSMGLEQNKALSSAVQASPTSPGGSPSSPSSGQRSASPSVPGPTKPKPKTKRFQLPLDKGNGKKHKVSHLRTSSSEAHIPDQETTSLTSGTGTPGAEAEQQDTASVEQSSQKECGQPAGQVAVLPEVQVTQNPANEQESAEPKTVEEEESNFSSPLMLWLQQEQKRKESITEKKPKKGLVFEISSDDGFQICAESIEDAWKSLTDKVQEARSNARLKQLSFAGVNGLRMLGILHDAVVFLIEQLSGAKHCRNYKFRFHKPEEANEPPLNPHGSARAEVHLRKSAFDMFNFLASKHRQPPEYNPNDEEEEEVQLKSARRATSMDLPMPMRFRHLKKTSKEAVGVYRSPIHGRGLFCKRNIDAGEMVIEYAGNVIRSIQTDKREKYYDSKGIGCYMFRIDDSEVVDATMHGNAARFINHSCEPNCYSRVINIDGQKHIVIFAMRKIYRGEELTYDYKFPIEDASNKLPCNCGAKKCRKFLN

Key:
Experiment in all cases: log2 fold change, soluble protein after heating vs DMSO (PISA); higher = thermal stabilisation; K562 cells, 10 uM, 30 min; active = over 0.2 and 3.5 SD of the protein, either way, in both replicates (recomputed)
saracatinib = compound: CN1CCN(CCOc2cc(OC3CCOCC3)c3c(Nc4c(Cl)ccc5c4OCO5)ncnc3c2)CC1 [saracatinib]
Procedure, shortened: (§1)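 Values are thermal stability changes relative to control samples and are taken from duplicates. They are stated as log2 fold changes. Before quantification by TMTpro 16plex LC-MS/MS with equalised channel sums, K562 cells at 2×10^6 cells/mL were treated with 10 μM compound for 30 min, heated in aliquots for 3 min across 48°C-58°C, pooled, extracted in PBS with 0.5% NP-40 at 4°C, and centrifuged at 21,000xg for 90 min to give the soluble supernatant.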

sotrastaurin = compound: CN1CCN(c2nc(C3=C(c4c[nH]c5ccccc45)C(=O)NC3=O)c3ccccc3n2)CC1 [sotrastaurin]
Procedure, shortened: as §1

Tubastatin A = compound: CN1CCc2c(c3ccccc3n2Cc2ccc(C(=O)NO)cc2)C1 [Tubastatin A]
Procedure, shortened: as §1

[1] = compound: CNC(=O)C1=CC=CC=C1NC2=NC(=NC=C2Cl)NC3=C(C=C(C=C3)N4CCOCC4)OC
Procedure, shortened: as §1

defactinib = compound: CNC(=O)c1ccc(Nc2ncc(C(F)(F)F)c(NCc3nccnc3N(C)S(C)(=O)=O)n2)cc1 [defactinib]
Procedure, shortened: as §1

rucaparib = compound: CNCc1ccc(-c2[nH]c3cc(F)cc4c3c2CCNC4=O)cc1 [rucaparib]
Procedure, shortened: as §1

[2] = compound: CNc1nc(-c2ccc3c(N)n[nH]c3c2)cc(N2C[C@@H](C(=O)NC3CCCCC3)CC[C@H]2C)n1
Procedure, shortened: as §1

encorafenib = compound: COC(=O)N[C@@H](C)CNc1nccc(-c2cn(C(C)C)nc2-c2cc(Cl)cc(NS(C)(=O)=O)c2F)n1 [encorafenib]
Procedure, shortened: as §1

[3] = compound: COC(=O)[C@H](CCSC)NC(=O)C1=C(C=C(C=C1)NC[C@H](CS)N)C2=CC=CC=C2
Procedure, shortened: as §1

alvocidib = compound: CN1CC[C@H](c2c(O)cc(O)c3c(=O)cc(-c4ccccc4Cl)oc23)[C@H](O)C1 [alvocidib]
Procedure, shortened: as §1

Measured: log2 fold change

KEAP1 (UniProt Q14145)
inactive: saracatinib -0.009 | sotrastaurin -0.119 | Tubastatin A -0.035 | [1] 0.054 | defactinib -0.045 | rucaparib 0.116 | [2] -0.015 | encorafenib 0.059 | [3] -0.003

KBTBD8 (UniProt Q8NFY9)
inactive: saracatinib 0.016 | sotrastaurin -0.057 | alvocidib -0.046 | Tubastatin A -0.124 | defactinib 0.017 | rucaparib 0.044 | [2] 0.007 | encorafenib -0.014 | [3] -0.015

JTB (UniProt O76095)
inactive: saracatinib -0.033 | sotrastaurin 0.22 | alvocidib -0.114 | Tubastatin A -0.072 | [1] 0.053 | defactinib -0.007 | rucaparib 0.037 | [2] 0.058 | encorafenib -0.038 | [3] 0.124

KIF14 (UniProt Q15058)
inactive: saracatinib 0.038 | sotrastaurin 0.07 | alvocidib 0.32 | [1] -0.156 | defactinib 0.109 | rucaparib 0.522 | [2] 0.102 | encorafenib 0.209 | [3] 0.047

KHDRBS1 (UniProt Q07666)
inactive: saracatinib 0.025 | sotrastaurin 0.018 | Tubastatin A -0.006 | [1] 0 | defactinib 0.042 | [2] -0.009 | encorafenib -0.009 | [3] -0.05
active: rucaparib 0.248

KEL (UniProt P23276)
inactive: saracatinib 0.09 | sotrastaurin -0.009 | Tubastatin A 0.004 | [1] -0.091 | defactinib -0.038 | rucaparib 0.006 | [2] -0.026 | encorafenib -0.061 | [3] 0.03

KAT8 isoform 2 (UniProt Q9H7Z6)
inactive: saracatinib 0.132 | sotrastaurin -0.06 | alvocidib 0.035 | Tubastatin A 0.034 | [1] -0.031 | defactinib -0.062 | [2] -0.206 | [3] 0.062

KPNA6 (UniProt O60684)
inactive: saracatinib -0.004 | sotrastaurin -0.117 | Tubastatin A 0.008 | [1] 0.082 | defactinib -0.06 | rucaparib 0.092 | [2] -0.042 | encorafenib 0.12 | [3] -0.099

KIAA1143 (UniProt Q96AT1)
inactive: saracatinib -0.055 | sotrastaurin 0.111 | alvocidib 0.082 | Tubastatin A -0.002 | [1] -0.056 | defactinib 0.026 | rucaparib 0.055 | [2] -0.043 | encorafenib -0.072 | [3] 0.051

KLHL11 (UniProt Q9NVR0)
inactive: saracatinib -0.029 | sotrastaurin -0.184 | alvocidib -0.034 | Tubastatin A -0.061 | [1] -0.014 | defactinib -0.057 | rucaparib 0.05 | [2] 0.202 | encorafenib 0.141 | [3] -0.07

KNL1 (UniProt Q8NG31)
inactive: saracatinib -0.021 | sotrastaurin -0.037 | alvocidib -0.098 | Tubastatin A 0.198 | [1] -0.349 | rucaparib -0.136 | [2] 0.028 | encorafenib 0

KIF3A (UniProt Q9Y496)
inactive: saracatinib -0.102 | sotrastaurin -0.073 | Tubastatin A -0.031 | [1] 0.085 | defactinib 0.013 | rucaparib 0.292 | [2] 0.037 | encorafenib 0.003 | [3] 0.005

Quoted at random: 2 records from the list
KNL1 (UniProt Q8NG31)
inactive: saracatinib -0.021 | sotrastaurin -0.037 | alvocidib -0.098 | Tubastatin A 0.198 | [1] -0.349 | rucaparib -0.136 | [2] 0.028 | encorafenib 0

KEAP1 (UniProt Q14145)
inactive: saracatinib -0.009 | sotrastaurin -0.119 | Tubastatin A -0.035 | [1] 0.054 | defactinib -0.045 | rucaparib 0.116 | [2] -0.015 | encorafenib 0.059 | [3] -0.003

Carrying on.

KLHL7 isoform 3 (UniProt Q8IXQ5)
inactive: saracatinib 0.083 | sotrastaurin 0.133 | alvocidib 0.227 | [2] 0.007

KATNAL1 (UniProt Q9BW62)
inactive: saracatinib 0.055 | sotrastaurin -0.134 | alvocidib -0.123 | Tubastatin A -0.078 | defactinib -0.043 | [2] -0.101 | [3] 0.034

KIF2C (UniProt Q99661)
inactive: saracatinib 0.003 | sotrastaurin -0.048 | Tubastatin A 0.024 | [1] -0.017 | defactinib -0.051 | rucaparib 0.019 | [2] 0.064 | encorafenib 0.142 | [3] -0.092

KIF1B isoform 4 (UniProt O60333)
inactive: saracatinib -0.033 | sotrastaurin -0.014 | Tubastatin A 0.025 | [1] 0.016 | defactinib -0.004 | rucaparib -0.006 | [2] -0.097 | encorafenib 0.023 | [3] -0.016

KIAA0930 isoform 2 (UniProt Q6ICG6)
inactive: saracatinib -0.063 | sotrastaurin 0.087 | alvocidib 0.14 | [1] -0.024 | defactinib 0.055 | rucaparib 0.075 | [2] 0.086 | encorafenib 0.032 | [3] 0.2

KMT2A isoform 3 (UniProt Q03164)
inactive: saracatinib 0.066 | sotrastaurin -0.136 | alvocidib -0.154 | [1] -0.045 | [2] 0.168
